Paper doi:10.1101/2025.08.29.668156
Results are given in words; binding and its absence hold for the method and conditions named. Binding seen in cells or lysates may run through a third protein. A yes stands for co-enrichment or nearness to the bait. Other partners may have been found. For some of these results: Tags and fused reporters may be left off the sequences shown.

Chains of the proteins cited; added tags and fusions are not shown.
UniProt P02545: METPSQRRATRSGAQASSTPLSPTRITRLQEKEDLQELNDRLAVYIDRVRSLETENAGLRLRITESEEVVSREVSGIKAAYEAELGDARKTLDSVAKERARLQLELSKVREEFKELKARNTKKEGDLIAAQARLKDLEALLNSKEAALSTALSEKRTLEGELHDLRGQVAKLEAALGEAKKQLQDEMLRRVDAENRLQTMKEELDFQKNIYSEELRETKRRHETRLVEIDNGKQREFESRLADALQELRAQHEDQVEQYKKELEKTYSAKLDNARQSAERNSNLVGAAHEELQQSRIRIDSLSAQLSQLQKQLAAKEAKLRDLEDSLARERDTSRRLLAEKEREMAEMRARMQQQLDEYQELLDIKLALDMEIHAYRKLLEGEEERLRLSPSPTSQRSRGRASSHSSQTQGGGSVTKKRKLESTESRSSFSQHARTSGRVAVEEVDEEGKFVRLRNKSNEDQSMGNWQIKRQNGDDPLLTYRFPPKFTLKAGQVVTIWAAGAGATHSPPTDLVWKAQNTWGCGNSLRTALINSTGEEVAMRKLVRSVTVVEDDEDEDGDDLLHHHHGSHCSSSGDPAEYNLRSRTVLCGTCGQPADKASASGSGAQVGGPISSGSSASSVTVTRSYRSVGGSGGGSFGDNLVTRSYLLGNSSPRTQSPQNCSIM

T1: ST6GALNAC1 fused to ultraID (UniProt Q9NSC7)
T1 sequence: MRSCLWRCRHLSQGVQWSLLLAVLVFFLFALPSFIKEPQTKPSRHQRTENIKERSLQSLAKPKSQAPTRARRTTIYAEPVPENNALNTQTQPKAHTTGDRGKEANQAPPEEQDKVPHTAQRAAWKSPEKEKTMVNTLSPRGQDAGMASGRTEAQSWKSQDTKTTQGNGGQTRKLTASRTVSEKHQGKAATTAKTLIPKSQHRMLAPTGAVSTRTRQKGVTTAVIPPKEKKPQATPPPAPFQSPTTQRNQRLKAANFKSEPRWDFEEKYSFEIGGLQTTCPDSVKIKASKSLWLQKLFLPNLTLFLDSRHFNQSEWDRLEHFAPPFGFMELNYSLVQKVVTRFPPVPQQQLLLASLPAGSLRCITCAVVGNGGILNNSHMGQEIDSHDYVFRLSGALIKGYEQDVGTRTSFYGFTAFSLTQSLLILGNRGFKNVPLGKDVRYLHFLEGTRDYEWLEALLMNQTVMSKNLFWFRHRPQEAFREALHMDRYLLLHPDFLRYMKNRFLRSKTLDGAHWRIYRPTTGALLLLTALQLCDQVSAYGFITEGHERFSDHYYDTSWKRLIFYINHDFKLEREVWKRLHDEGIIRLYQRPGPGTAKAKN


Experiments:
[1] = target: LMNA N-terminally fused to ultraID (UniProt P02545); test: proximity labelling
[2] = target: T1, ST6GALNAC1 fused to ultraID; test: proximity labelling

Binder	binding [1]	binding [2]
NUP93 (protein, UniProt Q8N1F7 1-819) MDTEGFGELLQQAEQLAAETEGISELPHVERNLQEIQQAGERLRSRTLTRTSQETADVKASVLLGSRGLDISHISQRLESLSAATTFEPLEPVKDTDIQGFLKNEKDNALLSAIEESRKRTFGMAEEYHRESMLVEWEQVKQRILHTLLASGEDALDFTQESEPSYISDVGPPGRSSLDNIEMAYARQIYIYNEKIVNGHLQPNLVDLCASVAELDDKSISDMWTMVKQMTDVLLTPATDALKNRSSVEVRMEFVRQALAYLEQSYKNYTLVTVFGNLHQAQLGGVPGTYQLVRSFLNIKLPAPLPGLQDGEVEGHPVWALIYYCMRCGDLLAASQVVNRAQHQLGEFKTWFQEYMNSKDRRLSPATENKLRLHYRRALRNNTDPYKRAVYCIIGRCDVTDNQSEVADKTEDYLWLKLNQVCFDDDGTSSPQDRLTLSQFQKQLLEDYGESHFTVNQQPFLYFQVLFLTAQFEAAVAFLFRMERLRCHAVHVALVLFELKLLLKSSGQSAQLLSHEPGDPPCLRRLNFVRLLMLYTRKFESTDPREALQYFYFLRDEKDSQGENMFLRCVSELVIESREFDMILGKLENDGSRKPGVIDKFTSDTKPIINKVASVAENKGLFEEAAKLYDLAKNADKVLELMNKLLSPVVPQISAPQSNKERLKNMALSIAERYRAQGISANKFVDSTFYLLLDLITFFDEYHSGHIDRAFDIIERLKLVPLNQESVEERVAAFRNFSDEIRHNLSEVLLATMNILFTQFKRLKGTSPSSSSRPQRVIEDRDSQLRSQARTLITFAGMIPYRTSGDTNARLVQMEVLMN	binds	–
B3GALT6 (protein, UniProt Q96L58 1-329) MKLLRRAWRRRAALGLGTLALCGAALLYLARCAAEPGDPRAMSGRSPPPPAPARAAAFLAVLVASAPRAAERRSVIRSTWLARRGAPGDVWARFAVGTAGLGAEERRALEREQARHGDLLLLPALRDAYENLTAKVLAMLAWLDEHVAFEFVLKADDDSFARLDALLAELRAREPARRRRLYWGFFSGRGRVKPGGRWREAAWQLCDYYLPYALGGGYVLSADLVHYLRLSRDYLRAWHSEDVSLGAWLAPVDVQREHDPRFDTEYRSRGCSNQYLVTHKQSLEDMLEKHATLAREGRLCKREVQLRLSYVYDWSAPPSQCCQRREGIP	–	binds
B4GAT1 (protein, UniProt O43505 1-415) MQMSYAIRCAFYQLLLAALMLVAMLQLLYLSLLSGLHGQEEQDQYFEFFPPSPRSVDQVKAQLRTALASGGVLDASGDYRVYRGLLKTTMDPNDVILATHASVDNLLHLSGLLERWEGPLSVSVFAATKEEAQLATVLAYALSSHCPDMRARVAMHLVCPSRYEAAVPDPREPGEFALLRSCQEVFDKLARVAQPGINYALGTNVSYPNNLLRNLAREGANYALVIDVDMVPSEGLWRGLREMLDQSNQWGGTALVVPAFEIRRARRMPMNKNELVQLYQVGEVRPFYYGLCTPCQAPTNYSRWVNLPEESLLRPAYVVPWQDPWEPFYVAGGKVPTFDERFRQYGFNRISQACELHVAGFDFEVLNEGFLVHKGFKEALKFHPQKEAENQHNKILYRQFKQELKAKYPNSPRRC	–	binds
…2 (protein, UniProt Q8N6G5 1-542) MPRRGLILHTRTHWLLLGLALLCSLVLFMYLLECAPQTDGNASLPGVVGENYGKEYYQALLQEQEEHYQTRATSLKRQIAQLKQELQEMSEKMRSLQERRNVGANGIGYQSNKEQAPSDLLEFLHSQIDKAEVSIGAKLPSEYGVIPFESFTLMKVFQLEMGLTRHPEEKPVRKDKRDELVEVIEAGLEVINNPDEDDEQEDEEGPLGEKLIFNENDFVEGYYRTERDKGTQYELFFKKADLTEYRHVTLFRPFGPLMKVKSEMIDITRSIINIIVPLAERTEAFVQFMQNFRDVCIHQDKKIHLTVVYFGKEGLSKVKSILESVTSESNFHNYTLVSLNEEFNRGRGLNVGARAWDKGEVLMFFCDVDIYFSAEFLNSCRLNAEPGKKVFYPVVFSLYNPAIVYANQEVPPPVEQQLVHKKDSGFWRDFGFGMTCQYRSDFLTIGGFDMEVKGWGGEDVHLYRKYLHGDLIVIRTPVPGLFHLWHEKRCADELTPEQYRMCIQSKAMNEASHSHLGMLVFREEIETHLHKQAYRTNSEAVG	–	binds
